No constants are given. Whether binding was seen depends on the method and setting. Binding seen in cells or lysates may run through a third protein. Binding can be weak; no strength is given.
Columns and labels:
[1] = molecular target: T1, IMC6^2-290-3xHA N162* (Azi at 162) (Toxoplasma gondii) (UniProt S8F8Q1); assay: cross-linking + co-IP
T1 sequence (chain, p-azidophenylalanine (Azi) at 162 (amber stop codon in place of N162)): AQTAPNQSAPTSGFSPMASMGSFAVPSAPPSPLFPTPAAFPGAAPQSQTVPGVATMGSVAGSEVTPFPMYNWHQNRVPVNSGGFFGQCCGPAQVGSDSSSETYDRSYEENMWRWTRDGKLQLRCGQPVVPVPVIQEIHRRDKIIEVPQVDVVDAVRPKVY

[2] = molecular target: T2, IMC6^2-290-3xHA F205 amber mutant (Azi at 205) (Toxoplasma gondii) (UniProt S8F8Q1); assay: cross-linking
T2 sequence (chain, p-azidophenylalanine (Azi) at 205 (amber stop codon in place of F205)): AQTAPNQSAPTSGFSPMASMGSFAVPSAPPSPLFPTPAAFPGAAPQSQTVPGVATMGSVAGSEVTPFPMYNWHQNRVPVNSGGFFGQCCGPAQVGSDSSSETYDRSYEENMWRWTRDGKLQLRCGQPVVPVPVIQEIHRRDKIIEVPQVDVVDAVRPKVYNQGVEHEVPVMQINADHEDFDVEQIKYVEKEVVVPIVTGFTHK

[3] = molecular target: T3, IMC6^2-290-3xHA H203 amber mutant (Azi at 203) (Toxoplasma gondii) (UniProt S8F8Q1); assay: cross-linking
T3 sequence (chain, p-azidophenylalanine (Azi) at 203 (amber stop codon in place of H203)): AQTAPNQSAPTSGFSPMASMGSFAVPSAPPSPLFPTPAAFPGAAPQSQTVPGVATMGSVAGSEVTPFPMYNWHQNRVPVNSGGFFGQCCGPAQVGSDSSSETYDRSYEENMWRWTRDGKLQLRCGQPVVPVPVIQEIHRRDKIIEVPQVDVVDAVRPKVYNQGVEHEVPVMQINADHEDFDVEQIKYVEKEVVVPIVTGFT

[4] = molecular target: T4, IMC6^2-290-3xHA Q185 amber mutant (Azi at 185) (Toxoplasma gondii) (UniProt S8F8Q1); assay: cross-linking
T4 sequence (chain, p-azidophenylalanine (Azi) at 185 (amber stop codon in place of Q185)): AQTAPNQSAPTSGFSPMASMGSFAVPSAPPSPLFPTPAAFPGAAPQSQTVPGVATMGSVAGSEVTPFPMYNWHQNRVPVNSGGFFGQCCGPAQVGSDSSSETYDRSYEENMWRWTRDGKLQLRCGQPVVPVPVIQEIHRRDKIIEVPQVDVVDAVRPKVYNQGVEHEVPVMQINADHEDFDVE

[5] = molecular target: T5, IMC6^2-290-3xHA E229 amber mutant (Azi at 229) (Toxoplasma gondii) (UniProt S8F8Q1); assay: cross-linking
T5 sequence (chain, p-azidophenylalanine (Azi) at 229 (amber stop codon in place of E229)): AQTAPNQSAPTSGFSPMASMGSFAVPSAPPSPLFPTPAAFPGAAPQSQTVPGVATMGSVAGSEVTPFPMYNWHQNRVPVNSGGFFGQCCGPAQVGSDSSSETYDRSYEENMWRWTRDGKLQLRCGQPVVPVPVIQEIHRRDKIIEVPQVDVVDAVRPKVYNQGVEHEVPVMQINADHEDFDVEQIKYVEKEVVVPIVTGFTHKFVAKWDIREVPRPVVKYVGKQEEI

[6] = molecular target: T6, IMC6^2-290-3xHA E243 amber mutant (Azi at 243) (Toxoplasma gondii) (UniProt S8F8Q1); assay: cross-linking
T6 sequence (chain, p-azidophenylalanine (Azi) at 243 (amber stop codon in place of E243)): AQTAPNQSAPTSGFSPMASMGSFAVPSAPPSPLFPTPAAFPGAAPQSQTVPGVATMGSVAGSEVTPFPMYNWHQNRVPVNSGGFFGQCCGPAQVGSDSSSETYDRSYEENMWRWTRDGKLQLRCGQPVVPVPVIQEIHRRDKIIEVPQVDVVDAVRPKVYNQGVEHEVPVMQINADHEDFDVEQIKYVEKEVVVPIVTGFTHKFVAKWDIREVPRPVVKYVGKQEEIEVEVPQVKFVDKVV

[7] = molecular target: T7, IMC6^2-290-3xHA E245 amber mutant (Azi at 245) (Toxoplasma gondii) (UniProt S8F8Q1); assay: cross-linking
T7 sequence (chain, p-azidophenylalanine (Azi) at 245 (amber stop codon in place of E245)): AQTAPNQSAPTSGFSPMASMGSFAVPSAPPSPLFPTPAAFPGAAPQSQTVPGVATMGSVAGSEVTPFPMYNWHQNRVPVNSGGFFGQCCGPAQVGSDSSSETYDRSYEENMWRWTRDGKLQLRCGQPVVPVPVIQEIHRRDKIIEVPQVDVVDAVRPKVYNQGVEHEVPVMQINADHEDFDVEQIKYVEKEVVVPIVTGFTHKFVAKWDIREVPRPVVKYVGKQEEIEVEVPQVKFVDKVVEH

[8] = molecular target: T8, IMC6^2-290-3xHA K224 amber mutant (Azi at 224) (Toxoplasma gondii) (UniProt S8F8Q1); assay: cross-linking
T8 sequence (chain, p-azidophenylalanine (Azi) at 224 (amber stop codon in place of K224)): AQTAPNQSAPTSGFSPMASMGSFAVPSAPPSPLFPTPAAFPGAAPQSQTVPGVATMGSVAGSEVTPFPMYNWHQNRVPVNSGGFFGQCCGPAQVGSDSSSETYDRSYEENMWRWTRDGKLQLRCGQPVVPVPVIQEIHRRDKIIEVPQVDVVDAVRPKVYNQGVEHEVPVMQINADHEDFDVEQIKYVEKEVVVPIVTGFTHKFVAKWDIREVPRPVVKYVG

[9] = molecular target: T9, IMC6^2-290-3xHA K240 amber mutant (Azi at 240) (Toxoplasma gondii) (UniProt S8F8Q1); assay: cross-linking
T9 sequence (chain, p-azidophenylalanine (Azi) at 240 (amber stop codon in place of K240)): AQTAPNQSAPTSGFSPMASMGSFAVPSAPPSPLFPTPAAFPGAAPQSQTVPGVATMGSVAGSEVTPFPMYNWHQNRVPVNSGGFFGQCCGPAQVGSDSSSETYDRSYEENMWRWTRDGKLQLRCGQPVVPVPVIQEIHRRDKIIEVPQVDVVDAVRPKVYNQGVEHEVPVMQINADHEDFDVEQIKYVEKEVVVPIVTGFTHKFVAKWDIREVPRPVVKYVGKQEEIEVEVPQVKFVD

[10] = molecular target: T10, IMC6^2-290-3xHA K277 amber mutant (Azi at 277) (Toxoplasma gondii) (UniProt S8F8Q1); assay: cross-linking
T10 sequence (chain, p-azidophenylalanine (Azi) at 277 (amber stop codon in place of K277)): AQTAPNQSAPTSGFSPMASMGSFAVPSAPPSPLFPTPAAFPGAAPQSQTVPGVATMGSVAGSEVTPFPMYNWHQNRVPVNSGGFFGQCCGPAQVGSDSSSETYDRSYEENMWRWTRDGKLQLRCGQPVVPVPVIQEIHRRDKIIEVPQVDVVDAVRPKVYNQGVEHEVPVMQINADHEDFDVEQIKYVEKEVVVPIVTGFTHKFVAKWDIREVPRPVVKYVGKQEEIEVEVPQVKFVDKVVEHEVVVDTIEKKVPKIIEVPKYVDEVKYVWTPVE

[11] = molecular target: T1, IMC6^2-290-3xHA N162* (Azi at 162) (Toxoplasma gondii); assay: cross-linking
[12] = molecular target: T11, IMC6^2-290-3xHA Q234 amber mutant (Azi at 234) (Toxoplasma gondii) (UniProt S8F8Q1); assay: cross-linking
T11 sequence (chain, p-azidophenylalanine (Azi) at 234 (amber stop codon in place of Q234)): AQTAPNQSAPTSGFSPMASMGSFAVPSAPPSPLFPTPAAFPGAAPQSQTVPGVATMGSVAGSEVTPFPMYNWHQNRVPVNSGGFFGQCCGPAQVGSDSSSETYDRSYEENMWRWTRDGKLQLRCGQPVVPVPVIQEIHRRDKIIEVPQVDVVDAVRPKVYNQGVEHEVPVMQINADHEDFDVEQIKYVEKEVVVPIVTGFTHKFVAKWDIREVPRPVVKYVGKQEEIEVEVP

[13] = molecular target: T12, IMC6^2-290-3xHA Y221 amber mutant (Azi at 221) (Toxoplasma gondii) (UniProt S8F8Q1); assay: cross-linking
T12 sequence (chain, p-azidophenylalanine (Azi) at 221 (amber stop codon in place of Y221)): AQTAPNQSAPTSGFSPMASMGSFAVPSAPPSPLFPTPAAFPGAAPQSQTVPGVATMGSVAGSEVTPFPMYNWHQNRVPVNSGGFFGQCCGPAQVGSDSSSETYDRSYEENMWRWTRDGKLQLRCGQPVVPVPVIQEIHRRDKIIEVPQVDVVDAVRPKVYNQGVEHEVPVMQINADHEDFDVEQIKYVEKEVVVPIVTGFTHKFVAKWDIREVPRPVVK

Measured: binding

IMC3 (from UniProt S8FA55)
binds: [1]

ILP1-smMyc
binds: [2] | [3] | [4]

IMC3-smMyc (from UniProt S8FA55)
not listed: [1] | [2] | [3] | [4]
binds: all other assays above

From doi:10.1101/2023.08.10.552545
